Our source for the binding signal values is article PMC7819943, “Rice protein-binding microarrays: a tool to detect cis-acting elements near promoter regions in rice”.

The chains behind the UniProt entries cited, without tags or fusion partners.
UniProt Q0JBA9, entry or part of it: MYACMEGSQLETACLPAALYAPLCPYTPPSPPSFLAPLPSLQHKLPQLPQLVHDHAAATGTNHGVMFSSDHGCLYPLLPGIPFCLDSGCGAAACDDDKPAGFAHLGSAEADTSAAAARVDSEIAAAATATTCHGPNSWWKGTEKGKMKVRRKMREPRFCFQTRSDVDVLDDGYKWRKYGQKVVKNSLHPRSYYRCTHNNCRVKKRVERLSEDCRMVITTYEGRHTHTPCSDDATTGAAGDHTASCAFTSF

The list shows a part of the results.

In the experiment the target is OsWRKY34 (Oryza sativa, UniProt Q0JBA9 1-250). Description: protein-binding microarray (RPBM); PBS, 2% BSA, 51.3 ng/ul salmon testes DNA, 50 uM zinc acetate, 200 nM TF, 25 C, 1 h; high values mean tight binding. Conditions: protein: recombinant; tags: N-terminal polyhistidine and DsRed monomer fusion (pET32a); label: CyDye5-dUTP incorporated in the synthesized complementary strand; 3' TTTTT single-stranded linker to array surface; dsDNA, one strand shown. Summed up:
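An Axon 4000B scanner gave the binding signal as per-feature fluorescence intensity in arbitrary units. This followed washing of a custom Agilent array that had been incubated for 1 h at 25 °C with 200 nM protein in PBS, 2% BSA, salmon testes DNA and 50 µM zinc acetate. The proteins were transcription factors fused at the N-terminus to polyhistidine and DsRed, expressed in E. coli BL21-CodonPlus and purified on Ni–NTA.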
Consider “CAATTCAGGTTTGTGGTTGCATATGGATCCCAATGGACGCCGGAGTCACCTAGTGCAG”, for which the binding signal is 8110 fluorescence intensity (a.u.).
Next, “AACCACACAAACACCCGCTGCGCCGCTCGCTTCCTCCTCCCGGAGTCACCTAGTGCAG”: 9880 fluorescence intensity (a.u.); “CACGCCGCTTGGCAACACACAACGATTCCGGACTAGGTACCGGAGTCACCTAGTGCAG”: 8050 fluorescence intensity (a.u.); “CATTGCCATCTCGCCAGATTCACCTCCTTTCCTTGCCGCCCGGAGTCACCTAGTGCAG”: 9340 fluorescence intensity (a.u.).
The same measure for “TAGCCACACCCACACGCACACCCGATCGATCCTGGCATCCCGGAGTCACCTAGTGCAG”: 9050 fluorescence intensity (a.u.).
Next, “AGTAGTAGTTTCGTTTGTACGTTGACCCAAGCAGCAGATGCGGAGTCACCTAGTGCAG”: 9340 fluorescence intensity (a.u.); “CGAATCACGCGCTCTCCAACTCACACGCGTCCGCATCAACCGGAGTCACCTAGTGCAG”: 11000 fluorescence intensity (a.u.).
Consider “CAATTCGTCCGCGAGCTATACAAATTTGGATTCGTTTTGTCGGAGTCACCTAGTGCAG”, for which the binding signal was 10400 fluorescence intensity (a.u.).
As for “CCCCACACTCCTTCGGCGCGCGCGTCCGTCCTCGATCGCGCGGAGTCACCTAGTGCAG”, the binding signal was 9720 fluorescence intensity (a.u.).
Next, “TTGCTTAACATATGCAAGTCGTTTCGGGGAGAGGGGCAGACGGAGTCACCTAGTGCAG”: 8020 fluorescence intensity (a.u.); “TAATGGGTTTTTTTTAGTGTTTCATTTTTTCTCTTCGGTTCGGAGTCACCTAGTGCAG”: 10800 fluorescence intensity (a.u.); “CAGATTCCTGTGTTTTTCCTATTCCTCCATTTTTTCAACCCGGAGTCACCTAGTGCAG”: 8120 fluorescence intensity (a.u.).
The same measure for “GGTTTTTTTTTTTCCGGATCAAATTGCCACGTCAACACGACGGAGTCACCTAGTGCAG”: 9510 fluorescence intensity (a.u.).
Next, “CGCCTCCGCCTCCGTCGACTCCGCGCCTCCGCCGCCACCCCGGAGTCACCTAGTGCAG”: 15100 fluorescence intensity (a.u.); “CGTCACCGCCGTCGATCTGCGCTCTCAGCCCGGCCAGCCACGGAGTCACCTAGTGCAG”: 8420 fluorescence intensity (a.u.); “TGTAAGTTAGCTTATCCTTGCTCCGGCCTCTACCGCATCTCGGAGTCACCTAGTGCAG”: 12100 fluorescence intensity (a.u.).
Consider “GGCTCGTTCGTCGTCTCCTCCCACCGCCGCTCGCGGGAGACGGAGTCACCTAGTGCAG”, for which the binding signal is 9420 fluorescence intensity (a.u.).
The same measure for “CATCGTGCTCTTCTCATTGCCTCTGCTTCTCGTGTTCTTGCGGAGTCACCTAGTGCAG”: 9360 fluorescence intensity (a.u.); for “ATACCATCTTAGTCATTGGGTTGGGAATGGCCTAAGATCACGGAGTCACCTAGTGCAG”: 8050 fluorescence intensity (a.u.).
“CATTTCTATTTCTGGCCCTTTTTCTGCTGTTTATGTCCATCGGAGTCACCTAGTGCAG”: the binding signal is 9020 fluorescence intensity (a.u.).
As for “CCGCTCTCCTACTGCTCGGCCAACCAGTCATGCACACATACGGAGTCACCTAGTGCAG”, the binding signal is 8790 fluorescence intensity (a.u.).
For the sequence “GGCGGGATATATGGTGGGGCATCTCGCGGGCGATGGCGACCGGAGTCACCTAGTGCAG”, the binding signal is 8430 fluorescence intensity (a.u.).
Next, “CGCCGCCTCATCGCCTCCGCTCGCCGGCGGACGAAACAACCGGAGTCACCTAGTGCAG”: 8760 fluorescence intensity (a.u.); “TGGTGGGATTGGTCATGGGAGTTACATTTTTAGTCCTCATCGGAGTCACCTAGTGCAG”: 11100 fluorescence intensity (a.u.); “CGGGATTTCCAAATTCCGTTCGCGCTCTCTCTCTCCCTATCGGAGTCACCTAGTGCAG”: 8210 fluorescence intensity (a.u.).
In the case of “CGCCTCGCCCTCGCGCTCTCGCTCTCGCTCTCGCTCGCGCCGGAGTCACCTAGTGCAG”, the binding signal is 8970 fluorescence intensity (a.u.).
The same measure for “GCTCCGTGCAACTGCAAAGTGACGTTTTTTTTACCACACGCGGAGTCACCTAGTGCAG”: 9200 fluorescence intensity (a.u.); for “GTGCTAATTCCGTTGCTTTCATAGTCCCAGGCCTATAATCCGGAGTCACCTAGTGCAG”: 11800 fluorescence intensity (a.u.); for “CACCTGTGTGCGTGCTATGATTCTTTTCTTCCCAACTTACCGGAGTCACCTAGTGCAG”: 11000 fluorescence intensity (a.u.).
The same measure for “TGATTCCCAGTGACTCCATTTTATTTTTCTTCCTTTAGATCGGAGTCACCTAGTGCAG”: 8350 fluorescence intensity (a.u.).
The same measure for “TCCCCATCTCCGCCGCAGCCCTCGTCGTCGTCCTCGTCCTCGGAGTCACCTAGTGCAG”: 18900 fluorescence intensity (a.u.); for “CTTCGTGACTCATCCAGCGCCTCCCCTGTGCCGCACCGGCCGGAGTCACCTAGTGCAG”: 8670 fluorescence intensity (a.u.); for “ATGATTTGGGGAATGACACTGAAGTATCCATCATTTTGCCCGGAGTCACCTAGTGCAG”: 8710 fluorescence intensity (a.u.).
For “TCGAAAAAACTTCGCGCTCCACTTTCTTGTACTCTCGCTTCGGAGTCACCTAGTGCAG”, the binding signal is 9360 fluorescence intensity (a.u.).
Regarding “CCCCGCACGCACGAAATATCCCACTCGCTTCGACACTCTCCGGAGTCACCTAGTGCAG”, the binding signal is 8880 fluorescence intensity (a.u.).
As to “TCTTCACAGGCACTCAATGCATTCCGCCCGTCAATCCTGTCGGAGTCACCTAGTGCAG”, the binding signal was 8450 fluorescence intensity (a.u.).
The same measure for “AGATTCATCAACTACTGCTTACATCCTTCATACTTCATTCCGGAGTCACCTAGTGCAG”: 9020 fluorescence intensity (a.u.); for “GTCTTTGTTTAGGACGGAGTAGTATTTTTTTTATCCCTAACGGAGTCACCTAGTGCAG”: 9060 fluorescence intensity (a.u.).
Next, “ACTGTCTGTCTTGGTCAGCTCTATGGATGCCTGGTGTACTCGGAGTCACCTAGTGCAG”: 8060 fluorescence intensity (a.u.); “AGTTGTTGTGCTTTAACTGTTTTGAGCCAGGTTATTTTGCCGGAGTCACCTAGTGCAG”: 12600 fluorescence intensity (a.u.); “GCACTAATTTATCTGCTAGTCTTATCTTGGCCACTTGGAACGGAGTCACCTAGTGCAG”: 9990 fluorescence intensity (a.u.).
Next, “CAAGGCCCGCCCATCCGTCTCCTCACACTCTGGCACACCTCGGAGTCACCTAGTGCAG”: 8580 fluorescence intensity (a.u.).
